Publication PMC7644731
Results are given in words; binding and its absence hold for the method and conditions named. In cells and extracts the contact can be indirect. Some results given as binding are weak or reduced against the parent protein; the word gives no strength.

Chains of the proteins cited; added tags and fusions are not shown.
UniProt P35820: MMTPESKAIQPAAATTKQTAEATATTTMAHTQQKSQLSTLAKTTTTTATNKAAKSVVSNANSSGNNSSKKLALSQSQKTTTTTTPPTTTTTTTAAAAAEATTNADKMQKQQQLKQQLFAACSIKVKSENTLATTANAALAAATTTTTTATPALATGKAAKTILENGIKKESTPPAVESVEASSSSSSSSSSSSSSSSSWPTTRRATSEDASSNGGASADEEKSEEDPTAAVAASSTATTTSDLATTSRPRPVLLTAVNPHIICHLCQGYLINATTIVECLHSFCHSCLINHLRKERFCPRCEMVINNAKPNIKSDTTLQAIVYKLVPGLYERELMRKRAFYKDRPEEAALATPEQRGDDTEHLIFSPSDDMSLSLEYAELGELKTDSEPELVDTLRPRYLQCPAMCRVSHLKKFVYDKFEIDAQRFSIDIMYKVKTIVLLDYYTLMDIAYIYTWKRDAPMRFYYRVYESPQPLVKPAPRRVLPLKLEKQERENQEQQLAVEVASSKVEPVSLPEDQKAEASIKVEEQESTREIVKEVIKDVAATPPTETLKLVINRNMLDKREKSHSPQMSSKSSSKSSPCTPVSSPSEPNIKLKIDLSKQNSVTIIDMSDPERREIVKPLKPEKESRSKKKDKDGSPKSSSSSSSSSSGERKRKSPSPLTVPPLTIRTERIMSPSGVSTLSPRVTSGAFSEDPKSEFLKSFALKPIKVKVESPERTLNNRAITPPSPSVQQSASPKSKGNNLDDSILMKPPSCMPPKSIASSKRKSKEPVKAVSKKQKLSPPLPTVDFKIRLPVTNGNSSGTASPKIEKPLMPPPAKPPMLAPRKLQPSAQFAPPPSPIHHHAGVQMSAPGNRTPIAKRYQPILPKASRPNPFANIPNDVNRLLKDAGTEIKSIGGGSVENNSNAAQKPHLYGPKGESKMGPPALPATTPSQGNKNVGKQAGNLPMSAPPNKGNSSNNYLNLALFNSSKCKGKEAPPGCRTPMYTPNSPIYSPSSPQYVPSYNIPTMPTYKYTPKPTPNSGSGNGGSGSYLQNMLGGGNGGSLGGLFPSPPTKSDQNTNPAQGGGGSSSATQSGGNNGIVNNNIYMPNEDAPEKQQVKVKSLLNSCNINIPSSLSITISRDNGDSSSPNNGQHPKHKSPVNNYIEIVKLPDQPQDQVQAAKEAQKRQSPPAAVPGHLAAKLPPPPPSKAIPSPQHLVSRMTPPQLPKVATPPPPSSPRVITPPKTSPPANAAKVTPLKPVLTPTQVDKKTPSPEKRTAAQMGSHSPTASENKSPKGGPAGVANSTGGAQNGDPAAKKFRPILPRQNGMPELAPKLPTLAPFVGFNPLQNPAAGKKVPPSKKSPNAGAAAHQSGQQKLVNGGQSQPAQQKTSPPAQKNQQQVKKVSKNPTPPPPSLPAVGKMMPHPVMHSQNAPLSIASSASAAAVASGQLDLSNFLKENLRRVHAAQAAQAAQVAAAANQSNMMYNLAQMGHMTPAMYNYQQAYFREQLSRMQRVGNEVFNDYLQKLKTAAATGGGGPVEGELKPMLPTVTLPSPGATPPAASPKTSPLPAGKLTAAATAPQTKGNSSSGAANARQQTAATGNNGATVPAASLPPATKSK
UniProt Q24572: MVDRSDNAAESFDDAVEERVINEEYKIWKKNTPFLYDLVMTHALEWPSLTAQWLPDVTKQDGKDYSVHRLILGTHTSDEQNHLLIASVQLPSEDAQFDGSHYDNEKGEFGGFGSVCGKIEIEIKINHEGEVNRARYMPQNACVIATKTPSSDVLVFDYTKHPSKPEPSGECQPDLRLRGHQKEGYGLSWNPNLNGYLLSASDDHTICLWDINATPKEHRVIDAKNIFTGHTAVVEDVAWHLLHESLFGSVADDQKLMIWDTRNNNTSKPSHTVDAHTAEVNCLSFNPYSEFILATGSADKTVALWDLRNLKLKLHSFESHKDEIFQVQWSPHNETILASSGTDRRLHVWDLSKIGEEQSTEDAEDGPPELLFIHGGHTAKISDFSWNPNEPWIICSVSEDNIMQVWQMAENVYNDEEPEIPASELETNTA

T1: Mini-Ph (Drosophila melanogaster) (UniProt P39769)
T1 sequence: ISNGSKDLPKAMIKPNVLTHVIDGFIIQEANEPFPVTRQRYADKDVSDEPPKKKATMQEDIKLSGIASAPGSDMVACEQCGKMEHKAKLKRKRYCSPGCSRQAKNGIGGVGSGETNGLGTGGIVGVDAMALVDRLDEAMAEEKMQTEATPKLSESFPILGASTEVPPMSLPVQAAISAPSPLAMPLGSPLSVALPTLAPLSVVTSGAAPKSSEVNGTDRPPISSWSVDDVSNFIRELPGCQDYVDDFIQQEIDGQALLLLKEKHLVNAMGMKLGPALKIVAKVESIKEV


Tests used:
[1] = biological target: T1, Mini-Ph (Drosophila melanogaster); assay: co-sedimentation; 7.5 µM Mini-Ph with or without chromatin (80 nM nucleosomes) in 20 mM Tris pH 8.0, 50 mM NaCl, 10 min at room temperature, then S2R+ nuclear extract (still contains RNA) added; after 60 min total condensates pelleted 2 min at 2500g, 4 °C; pellets and supernatants analysed by Western blot; only the target purified
[2] = biological target: Flag-PSC (Drosophila) (UniProt P35820); assay: co-IP; anti-FLAG beads, nuclear extracts of Sf9 cells co-infected for 3 days; wash with 2 M KCl + 1 M urea; incubation with 4 mM ATP + 4 mM MgCl2 in BC300N; eluted with 0.4 mg/ml FLAG

binding [1]	binding [2]	Molecule
no binding		p55 (from UniProt Q24572 1-430)
no binding		Su(Z)12 (protein, UniProt Q9NJG9 1-900) MAPAKKREKDSNPDGSAANGIIGLTHGAPDASNAGSTVPPTAEGQVKLNGHQQEQELFLQAFEKPTQIYRYLRNRHETNPIFLNRTLSYMKERMSRNNKKRISFQVNSMLESITQKSEAVSQNYLHVIYDSLHEKLPARLDNESGEDLLQEQLLCEAGESVSVETTLYKITRSKRKDSTLDFQELLSKCSQIVYNPKDRVGEHATISIPLQTMRPMGEQHTLYKLLFRIKVLSPSTCNDENAETPPNKRSRPNEKMFGSELILYEKSSGFITEGEYEAMLQPLNSTSIKSFSPKKCTWETMPDSYIPLSLTYDVYQQSPMLKFHLTLSNEQLPEMISAPELQRYVQHLDAVAEMNYNNNNYNNNNNCSGLKNGSGGGNSTVCKTTPEHIQIVYNFMYSNNTRQQTEYTQELNCPWCGLDCLRLYALLKHLKLCHARFNFTYQPAGSGARIDVTINDAYDGSYAGSPYDLAGPSGSSFARTCGPVRRTSVTSLMVCRPRRQKTCLDEFLELDEDEISNQRSYITGHNRLYHHTETCLPVHPKELDIDSEGESDPLWLRQKTIQMIDEFSDVNEGEKELMKLWNLHVMRHGFVGDCQLPIACEMFLDAKGTEIVRKNLYRNFILHMCSLFDYGLIAAETVYKTVQKLQGLLSKYAAGQELMQRQREEQLKYWLDVGMHKKQEDPKTLKSPQKPAPPADQASTSSASTSGSGSGSSSMQPPKRMPAHLKRGSAASSPGVQSKGTENGTNGSNSSSSNSKNVAKKSADQPLSTLANTRERRSEYGQKRNVSGSRLAATPASKRKLSSKDNTVLNKRQRYSDGSPGTGIGNGHGGGSGSGANRNKSNNHSLPATSNNASSSSSNSKRAIARRRSTSERTKASGSTGGGAGGVRTRLSVPAKYERR
no binding		ACF1 (protein, UniProt Q9V9T4 1-1476) MPICKREGFDLNQKEGKNETFHDNDQVFCCYITKRIFRDYEHYFRHVMVINSTVWQCEATGKENLTYEEAVKSERAARKKMEQFKQSLRAPVLLVVEHAQQSAVNTLNMIVAKFLRKRYFIGEEVSVQAKKNATYTVLGVKLDKNMPEPLNGIYEDTDNLVYRLRPNKGDPSAELDLPFRQLRRSRMEFNLENLSMFIKSNVSRVDGLLRPKPEAYKQYVTDPGVNFSTIFIGKMPRYSPAKIKKPDGKKQSTLNKYIVAGEATAAKSKAKAKSDAKSLAEELERVKREKEAKLIELEKQKAEKKAQLIERVENECNLLLQKTDDLERTDQKVLPRYRQIVTLLPEHLLGDAFMMREFMHTYTGLLSGIEVFRQNLSFYEMTRALTAREIAGPLSDILLVLLGTVFDLQKEEEEECAVTYLDRAAQTQEPYWSMAQAAKSHLYAKRHFSFKVNELPLDALTLSEVLRLHLLGSGAFVNEKAERWRVMYRNGYSSKEDPGLELRLEHSHILRILKNHSVYQLKFKDIMLLIRCLMSQIMTYSGTINLIEERMEQTAKARQDLRALVVGENKRLAAVEINRKKLTQMHHLEVNGVEPEKREALVEKLKKSIAELHAQSDQQHRKHELQMLKLHSQLFNFLVYLGMDRCYRKYYVLESMPGIFVEHSPDSLDTCLEQPITNKSQIEIRQQSALPKNRKDLRVYLLKLYGDDEKKTKKKAKHSLENKENQEHRLNGSAEPMDVESDSPEAPTHFELLMCSGDKRSCIVHDSRNGQRQRWAYIYKAEEIDELIKALNPNGLREYELLQELSVLRSLIEQHAKTCPVDLLSLENETMRKKFMAAMESETNRKYGEANFGLPNGTDLNEVMRLHLVDRIIQFENDIYTGDLGRLKVKDMEKWRSDLLGGNYDAQCKLQWGPGGKLEDEAGSDNESHETHEEDDGALLGKYARKPYRDPGMYLAASADTKPLPDSDDEEDQHTNAVSIPIAVHNMASALLQVEQAIGKRFLKEPYGMKKWDPKQEALKLACDSRLHQWEVSLMESTSFAQVFLHLNILHDCIQWRRSTNKSLCKVCRRGSDPEKMLLCDECNAGTHMFCLKPKLRSVPPGNWYCNDCVKSLGLSNGQNEKDKKQATKKKRKFIVEEEDDEATDEEEEEKKDDDMTDEDAEHENEKHDEDVEDDESVTSTPSSSRVNGRILRRPRTRPTSRRLTSKEIEEHAQEDVDSGDVSDDASLTAGEDTIEDESDEEKVCQKCFYDGGEIKCVQCRLFFHLECVHLKRPPRTDFVCKTCKPMPQRPRRRHSNMNGDHDRDEEEPKAKRPRNSLRLSIDKTARPSNGNNNNNNNNSSVNNNNHRRSGRRTNEHMPLNSAALYDLLEQIMKHKAAWPFLRPVLTSEVPDYHQIIKTPMDLAKIKSKLNMGAYQLNEELLSDIQLVFRNCDLYNVEGNEIYDAGCQLERFVIDRCRDMQLPFRPSDMNGEVKAC
	binds	dRING (protein, UniProt Q9VB08 1-435) MTSLDPAPNKTWELSLYELQRKPQEVITDSTEIAVSPRSLHSELMCPICLDMLKKTMTTKECLHRFCSDCIVTALRSGNKECPTCRKKLVSKRSLRADPNFDLLISKIYPSREEYEAIQEKVMAKFNQTQSQQALVNSINEGIKLQSQNRPQRFRTKGGGGGGGGGGNGNGAANVAAPPAPGAPTAVGRNASNQMHVHDTASNDSNSNTNSIDRENRDPGHSGTSAASAITSASNAAPSSSANSGASTSATRMQVDDASNPPSVRSTPSPVPSNSSSSKPKRAMSVLTSERSEESESDSQMDCRTEGDSNIDTEGEGNGELGINDEIELVFKPHPTEMSADNQLIRALKENCVRYIKTTANATVDHLSKYLAMRLTLDLGADLPEACRVLNFCIYVAPQPQQLVILNGNQTLHQVNDKFWKVNKPMEMYYSWKKT
	binds	Pc (protein, UniProt P26017 1-390) MTGRGKGSKGKLGRDNATDDPVDLVYAAEKIIQKRVKKGVVEYRVKWKGWNQRYNTWEPEVNILDRRLIDIYEQTNKSSGTPSKRGIKKKEKEPDPEPESEEDEYTFTENDVDTHQATTSSATHDKESKKEKKHHHHHHHHHHIKSERNSGRRSESPLTHHHHHHHHESKRQRIDHSSSSNSSFTHNSFVPEPDSNSSSSEDQPLIGTKRKAEVLKESGKIGVTIKTSPDGPTIKPQPTQQVTPSQQQPFQDQQQAEKIASEAATQLKSEQQATPLATEAINTTPAESGAEEEEVANEEGNQQAPQVPSENNNIPKPCNNLAINQKQPLTPLSPRALPPRFWLPAKCNISNRVVITDVTVNLETVTIRECKTERGFFRERDMKGDSSPVA
